Data as given in PubChem BioAssay AID1224827 (NIAID, 2016)

Assay: 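Confirm genes whose knock-down changes LPS-driven TNF promoter activity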 (follow-up of hits)
System: RAW264.7 G9 mouse macrophage reporter clone
Knock-down reagent: single siRNA against mouse genes, 100 nM siRNA
Time to read-out: siRNA for 2 days, then LPS about 16 h
Conditions: bacterial lipopolysaccharide (LPS), 10 ng/ml, cells fixed after overnight (about 16 h) stimulation
Measured: 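Imaged nuclear TNF reporter intensity, background removed, scaled per plate and to non-targeting control wells, as z-scores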
Reading the numbers: TNF reporter z-score, mean and TNF reporter z-score: higher = stronger Tnf promoter reporter signal; gene median z, three same-vendor siRNAs: higher = stronger Tnf reporter signal for the gene
Active means: 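Active siRNA: replicate-mean z-score of 2 or more, or -2 or less; no calls for control wells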
The whole screen tested about 3,800 reagents; below is an unselected part. About 2,200 of them (57%) were called active. 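Active means a strong reporter change in either direction; calls are per siRNA, not per gene; qiagen siRNAs gave weaker effects.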 Unmarked entries are inactive. Reagents against one gene are numbered here. No sequences are given here.

Gene	reagent no.	TNF reporter z-score, mean	gene median z, three same-vendor siRNAs	TNF reporter z-score, repeat 1	TNF reporter z-score, repeat 2
Ptpn13	1	2.85 (active)	-3	2.51	3.19
Ptpn13	2	-3.01 (active)	-3	-3.2	-2.81
Ptpn13	3	-3.39 (active)	-3	-3.2	-3.57
Ptpn13	4	1.88	-1.22	4.39	-0.625
Ptpn13	5	-0.904	-1.22	0.00992	-1.82
Ptpn13	6	-3.17 (active)	-1.22	-3.77	-2.58
Prkd2	1	1.72	0.734	0.339	3.1
Prkd2	2	1.46	0.734	1.8	1.13
Prkd2	3	-4.99 (active)	0.734	-5.07	-4.91
Prkd2	4	0.318	-2.65	1.45	-0.809
Prkd2	5	-2.65 (active)	-2.65	-2.95	-2.36
Prkd2	6	-4.06 (active)	-2.65	-4.42	-3.7
Synj2bp	1	-2.22 (active)	-5.34	-2.62	-1.82
Synj2bp	2	-5.56 (active)	-5.34	-5.41	-5.71
Synj2bp	3	-5.61 (active)	-5.34	-5.27	-5.94

Part of the list above in another layout:
{"Gene":"Prkd2","reagent no.":1,"TNF reporter z-score, mean":1.72,"gene median z, three same-vendor siRNAs":0.734,"TNF reporter z-score, repeat 1":0.339,"TNF reporter z-score, repeat 2":3.1}
{"Gene":"Prkd2","reagent no.":2,"TNF reporter z-score, mean":1.46,"gene median z, three same-vendor siRNAs":0.734,"TNF reporter z-score, repeat 1":1.8,"TNF reporter z-score, repeat 2":1.13}
{"Gene":"Prkd2","reagent no.":3,"TNF reporter z-score, mean":"-4.99 (active)","gene median z, three same-vendor siRNAs":0.734,"TNF reporter z-score, repeat 1":-5.07,"TNF reporter z-score, repeat 2":-4.91}

The listing continues.
Gene	reagent no.	TNF reporter z-score, mean	gene median z, three same-vendor siRNAs	TNF reporter z-score, repeat 1	TNF reporter z-score, repeat 2
Ido1	1	-3 (active)	-4.49	-4.25	-1.76
Ido1	2	-3.48 (active)	-4.49	-4.74	-2.22
Ido1	3	-6.27 (active)	-4.49	-5.92	-6.61
Ido1	4	2.86 (active)	0.332	4.79	0.93
Ido1	5	1.02	0.332	2.3	-0.266
Ido1	6	-1.1	0.332	-1.68	-0.517
Mrpl51	1	2.02 (active)	-2.24	0.458	3.57
Mrpl51	2	-2.24 (active)	-2.24	-1.51	-2.97
Mrpl51	3	-4.08 (active)	-2.24	-3.89	-4.28
Mrpl51	4	4.7 (active)	1.77	7.78	1.62
Mrpl51	5	3.13 (active)	1.77	5.38	0.878
Mrpl51	6	0.785	1.77	1.92	-0.349
